Out of some 1,300 compounds screened, fewer than 10 were called active. Inconclusive results (about 9%) are left out. Calls follow the shape of the dose curve; as a rule, active = well fitted curve in the direction sought with a large enough effect; inconclusive = small, poorly fitted or top-dose-only effect, or another doubt; inactive = no such curve, though single readings can be large or run the other way. Some of the results follow.
Test: qHTS for antagonists of the Thyroid Stimulation Hormone Receptor: Hit Validation in Parental Cell Line; also: 0% is about no effect
Conditions: parental HEK293 cells lacking TSHR, counter-screen; series mostly up to 56.9 µM; activity change, negative = inhibition: at the top concentration
Method in brief: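 Counterscreen in untransfected parental HEK-EM 293 cells. Lysate cAMP displaces cAMP-d2 from cryptate-tagged anti-cAMP antibody, and homogeneous TR-FRET is read at 665 nm with 337 nm excitation after stimulation.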

SMILES	activity change, negative = inhibition
Cc1ccc(N2C(=O)C3C4C=CC(CC4)C3C2=O)cc1Cl (stereo not drawn)	inactive: -0.0062%
CCCCCCSc1ccc(-c2nc3ccc(Cl)cn3c2NCCCC)cc1OC	inactive: 4.59%
COC(=O)c1nc2n(n1)C(c1cccc(Cl)c1)C1=C(CCCC1=O)N2 (stereo not drawn)	inactive: 4.65%
CCOC(=O)COc1ccc(S(=O)(=O)NCCC2=CCCCC2)cc1	inactive: 1.89%
Cc1nc2ncnn2c(N2CCCC(C(=O)Nc3ccccc3Br)C2)c1C (stereo not drawn)	inactive: 5.02%
N#CC1=C(N)NC(SCc2ccc(Br)cc2)=C(C#N)C12CCCCC2	inactive: -3.27%
O=C(NC1C2CC3CC(C2)CC1C3)c1ccc2c(c1)OCO2 (stereo not drawn)	inactive: 4.95%
OCCSc1nnc(Nc2ccccc2)s1	inactive: 1.36%
Cc1ccc(C(=O)C2=C(O)C(=O)N(c3ncccn3)C2c2ccccc2F)o1 (stereo not drawn)	inactive: 34.2%
CC(c1nnnn1C1CCCCC1)N(Cc1ccccc1)Cc1cccnc1 (stereo not drawn)	inactive: 2.1%
COc1ccc(OC)c(NC(=O)c2nc(S(=O)(=O)Cc3ccccc3)ncc2Cl)c1	inactive: 0.0734%
CC1(C)CC(O)CC(C)(C)N1CC(O)COCc1ccccc1 (stereo not drawn)	inactive: -0.149%
N#Cc1c(F)cccc1N1CCN(Cc2ccc3c(c2)OCO3)CC1	inactive: 5%
CCN(CC)S(=O)(=O)c1ccc(Oc2ccc(S(=O)(=O)N(CC)CC)cc2)cc1	inactive: -1.1%
COc1ccc(CCNc2ncnc3c2[nH]c2cc(OC)c(OC)cc23)cc1OC	inactive: -8.76%
Cc1ccc2c(CN3CCN(S(=O)(=O)c4ccc5c(c4)OCCO5)CC3)cc(=O)oc2c1C	inactive: 6.91%
COCCNc1oc(Cc2cccc3ccccc23)nc1C#N	inactive: 3.13%
Cc1cc(/C=N/n2c(COc3ccccc3C)nc3ccccc3c2=O)c(O)c([N+](=O)[O-])c1	inactive: 0.666%
O=C(CSc1nc2cc(Cl)c(Cl)cc2[nH]1)c1ccc2c(c1)OCO2	inactive: -8.61%
CC(=O)OCCNc1cc(Sc2nc3ccccc3[nH]2)c2nonc2c1[N+](=O)[O-]	inactive: -1.17%
COc1ccc(Nc2ccc([N+](=O)[O-])c3nonc23)c(OC)c1	inactive: 1.44%
S=c1[nH]nc(-c2ccccc2Cl)n1Cc1ccccc1	inactive: -1.47%
Cc1ccc(-n2[nH]c(C)c(/C=N/Nc3ccc([N+](=O)[O-])cc3[N+](=O)[O-])c2=O)cc1C	inactive: -8.57%
Nc1ccn(Cc2ccccc2F)n1	inactive: 6.96%
CN(CC(=O)Nc1ccccc1Cl)C(=O)COC(=O)c1nc(Cl)c(Cl)c(Cl)c1Cl	inactive: -3.78%
Cc1ccccc1NC1c2ccccc2C(=O)N1Cc1ccco1 (stereo not drawn)	inactive: 3.3%

SMILES	activity change, negative = inhibition
Cc1ccc(NC(=O)COc2cccc3c2OC(C)(C)C3)c(O)c1	inactive: -0.793%
CCCCC(=O)N1CCN(c2nc3ccc(Br)cc3s2)CC1	inactive: -4.27%
O=[N+]([O-])c1ccc(O)c(/C=N/NC(=S)Nc2ccc(Cl)cc2Cl)c1	inactive: -8.37%
O=C(Oc1c(Br)cc([N+](=O)[O-])cc1Br)c1cccnc1	inactive: -4.35%
COC(=O)c1sc(-c2ccc(C(C)(C)C)cc2)cc1NC(=O)/C=C/C(=O)O	inactive: 3.56%
COc1ccc(C(NC(=O)c2c(F)c(F)c(F)c(F)c2F)c2ccccc2)cc1 (stereo not drawn)	inactive: -4.7%
CCCOc1ccc(CSc2nc3ccccc3[nH]2)cc1	inactive: 2.29%
CN(C)S(=O)(=O)Oc1cccc(C(=O)Nc2ccc(Cl)c(Cl)c2)c1	inactive: -6.85%
CCOc1cc(C(=O)NC2CC(C)(C)NC(C)(C)C2)cc(OCC)c1OCC	inactive: 4.14%
COc1cccc(COc2cc3ccccc3nc2C)c1	inactive: 1.35%
COc1ccc(-c2nc(CS(=O)CC(=O)NCc3ccccc3)c(C)o2)cc1OC (stereo not drawn)	inactive: 5.21%
N#CC(C#N)=C1C=CC=CN1/C(=C\c1ccco1)C(=O)c1ccc(Br)cc1	inactive: -3.31%
CC(Sc1nnc2c(n1)[nH]c1ccccc12)C(=O)N(C)C1CCCCC1 (stereo not drawn)	inactive: -1.27%
O=C(NCc1cccc(Cl)c1)c1cc(COc2ccc3ncccc3c2)on1	inactive: -2.71%
O=C(N[C@H]1C/C=C\C(c2cccc(F)c2)N(Cc2ccccc2)C(=O)C1)OCC1c2ccccc2-c2ccccc21 (stereo partly drawn)	inactive: -10.5%
C/C(=N\Nc1cc(C)nc(-c2ccccc2O)n1)c1ccccc1	inactive: -2.22%
CCC(=O)N(CC)c1nc(-c2cc(OC)ccc2OC)cs1	inactive: 3.99%
COc1ccccc1NS(=O)(=O)c1cccc(NC(=O)c2nn(C)c(=O)c3ccccc23)c1	inactive: -3.68%
COc1cc(/C=C/C(=O)c2ccc(NS(=O)(=O)c3ccc(C)cc3)cc2)ccc1OC(F)F	inactive: 0.467%
COCc1c(C(=O)Nc2cccc(S(=O)(=O)N3CCCCC3)c2)oc2ccccc12	inactive: -5.73%
Fc1ccc2nc(Nc3nc4c(F)cc(F)cc4s3)sc2c1	inactive: -7.32%
COc1ccc(Cn2nnnc2C(C(C)C)N2CCN(c3ccccc3OC)CC2)cc1 (stereo not drawn)	inactive: -3.62%
Cc1ccc(Nc2cc(C)nc3ccc(C)cc23)cc1	inactive: -8.63%
CC(=O)c1sc(NC(=O)c2cc(-c3ccccc3)nn2-c2ccccc2)nc1C	inactive: -4.77%
O=C(N/N=C/c1ccc[nH]1)c1sc2ccccc2c1Cl	inactive: -7.13%
O=C(COc1cccc(Cl)c1)Nc1nc(-c2ccc(S(=O)(=O)N3CCOCC3)cc2)cs1	inactive: -0.145%

Molecules shown so far that have four or more nitrogen atoms, in the order listed:
SMILES	activity change, negative = inhibition
COC(=O)c1nc2n(n1)C(c1cccc(Cl)c1)C1=C(CCCC1=O)N2 (stereo not drawn)	inactive: 4.65%
Cc1nc2ncnn2c(N2CCCC(C(=O)Nc3ccccc3Br)C2)c1C (stereo not drawn)	inactive: 5.02%
N#CC1=C(N)NC(SCc2ccc(Br)cc2)=C(C#N)C12CCCCC2	inactive: -3.27%
CC(c1nnnn1C1CCCCC1)N(Cc1ccccc1)Cc1cccnc1 (stereo not drawn)	inactive: 2.1%
COc1ccc(CCNc2ncnc3c2[nH]c2cc(OC)c(OC)cc23)cc1OC	inactive: -8.76%
Cc1cc(/C=N/n2c(COc3ccccc3C)nc3ccccc3c2=O)c(O)c([N+](=O)[O-])c1	inactive: 0.666%
CC(=O)OCCNc1cc(Sc2nc3ccccc3[nH]2)c2nonc2c1[N+](=O)[O-]	inactive: -1.17%
COc1ccc(Nc2ccc([N+](=O)[O-])c3nonc23)c(OC)c1	inactive: 1.44%
Cc1ccc(-n2[nH]c(C)c(/C=N/Nc3ccc([N+](=O)[O-])cc3[N+](=O)[O-])c2=O)cc1C	inactive: -8.57%
O=[N+]([O-])c1ccc(O)c(/C=N/NC(=S)Nc2ccc(Cl)cc2Cl)c1	inactive: -8.37%
CC(Sc1nnc2c(n1)[nH]c1ccccc12)C(=O)N(C)C1CCCCC1 (stereo not drawn)	inactive: -1.27%
C/C(=N\Nc1cc(C)nc(-c2ccccc2O)n1)c1ccccc1	inactive: -2.22%
COc1ccccc1NS(=O)(=O)c1cccc(NC(=O)c2nn(C)c(=O)c3ccccc23)c1	inactive: -3.68%
COc1ccc(Cn2nnnc2C(C(C)C)N2CCN(c3ccccc3OC)CC2)cc1 (stereo not drawn)	inactive: -3.62%
CC(=O)c1sc(NC(=O)c2cc(-c3ccccc3)nn2-c2ccccc2)nc1C	inactive: -4.77%

Following part:

SMILES	activity change, negative = inhibition
CCN(c1cccc(C)c1)S(=O)(=O)c1cn(CC(=O)OC)c2ccc([N+](=O)[O-])cc12	inactive: -0.564%
Cc1onc(-c2ccccc2)c1NC(=O)N(Cc1ccccc1)C(C)C	inactive: 1.03%
Cn1c(=O)c(C(=O)NNC(=O)c2cccc(Cl)c2)c(O)c2ccccc21	inactive: 0.566%
CC(Sc1nnc(N)s1)c1ccccc1Cl (stereo not drawn)	inactive: 2.91%
Cc1ccccc1CS(=O)(=O)c1nnc([C@H](Cc2ccccc2)NC(=O)OC(C)(C)C)o1	inactive: -0.204%
N#C/C(=N\Nc1cccc([N+](=O)[O-])c1)C(=O)c1ccc(Br)cc1	inactive: -6.36%
CCOc1ccc(-c2csc(/C(C#N)=C\c3ccc(O)c([N+](=O)[O-])c3)n2)cc1	inactive: -9.37%
O=C(NCCC1=CCCCC1)C1CCCN(S(=O)(=O)c2ccccc2)C1 (stereo not drawn)	inactive: 2.38%
Cc1cc2c(NCc3ccccc3)ncnc2s1	inactive: -0.667%
CN(c1ccccc1)S(=O)(=O)c1ccc(NC(=O)c2nc(S(C)(=O)=O)ncc2Cl)cc1	inactive: -3.18%
O=C(CNC(=O)c1ccco1)OCC(=O)c1ccccc1	inactive: 3.89%
Cc1ccccc1C(=O)Nc1nnc(SCC(=O)NC2CC2)s1	inactive: -3.38%
CC(C)(C)OC(=O)N1CCC(CC2CC(c3cccc(Br)c3)=NO2)(C(=O)NCC2CCCCC2)CC1 (stereo not drawn)	inactive: 1.37%
N#CC(C#N)=C1C=CC=CN1/C(=C\c1ccco1)C(=O)c1ccc(Cl)cc1	inactive: -3.41%
Cc1ccc(C)c(C(=O)OCC(=O)Nc2cccc(S(=O)(=O)N3CCCCC3)c2)c1	inactive: -4.33%
O=S1(=O)C=C(Sc2nc3cc(Cl)ccc3o2)c2ccccc21	inactive: -8.25%
O=c1[nH]nc(Cc2ccc(-c3cccc(Cl)c3)o2)c2ccccc12	inactive: 2.64%
N#Cc1ccc(C(=O)Nc2nc(-c3cccs3)c(C(=O)C(F)(F)F)s2)cc1	inactive: 3.95%
COc1ccc(/C=N/NC(=O)c2ccoc2C)cc1COc1c(C)cccc1C	inactive: -0.16%
Cc1ccc(C)c(N2CCN(S(=O)(=O)c3ccc4c(c3)CC(C)N4C(=O)C3CC3)CC2)c1 (stereo not drawn)	inactive: 1.32%
CCCn1nc([N+](=O)[O-])c(C(C#N)c2nc3ccccc3o2)c(Cl)c1=O (stereo not drawn)	inactive: -5.93%
Cc1cc(=O)oc2ccc(OCc3ccccc3)cc12	inactive: 4.66%
CCc1ccc(/C=C/C(=O)c2cc(Br)ccc(=O)c2O)cc1	inactive: 2.09%
O=C(Nc1ccccc1Cl)/C(Cl)=C(\Cl)S(=O)c1ccccc1 (stereo not drawn)	inactive: -7.93%
Cc1ccc2oc(C(=O)N3CCCCCC3)c(C)c2c1	inactive: 2.05%
O=C(Nc1ccc(Br)cc1)c1cccc(S(=O)(=O)Nc2cnc3ccccc3c2)c1	inactive: -3.55%

SMILES	activity change, negative = inhibition
COc1ccccc1NS(=O)(=O)c1ccc2oc(SCc3ccc(F)cc3)nc2c1	inactive: 1.69%
CC(=O)Nc1ccc(S(=O)(=O)Nc2c(NC3CCCCC3)c3ccccc3oc2=O)cc1	inactive: 3.23%
N#C/C(=N/Nc1ccc(OC(F)(F)F)cc1)C(N)=S	inactive: -5.72%
CCN(C(=O)c1cc2c(=O)n3ccccc3nc2n1C)C1CCCCC1	inactive: 4.43%
O=Cc1c[nH]c2ccc(C(=O)c3ccccc3)cc12	inactive: -2.24%
Cc1ccc(-c2cnc(C3CC3)o2)cc1S(=O)(=O)Nc1ccccc1	inactive: -2.96%
CC1=N/C(=C\c2ccc([N+](=O)[O-])cc2)C(=O)N1c1ccc(Cl)cc1	inactive: 4.34%
O=c1[nH]c(C2CCN(S(=O)(=O)c3cccc(Cl)c3)CC2)nc2c1nnn2Cc1ccccc1	inactive: -3.11%
COc1ccc(C(CC(=O)N2CCOCC2)c2c(OC)cc(OC)c3c(-c4ccccc4)cc(=O)oc23)cc1 (stereo not drawn)	inactive: 0.693%
CCS(=O)(=O)c1ccc(C(=O)Nc2ccccc2)c(Cl)c1Cl	inactive: 4.07%
COC(CNC(=O)c1ccc(Cn2c(=S)[nH]c3cc4c(cc3c2=O)OCO4)cc1)OC	inactive: 0.363%
C=CS(=O)(=O)c1sc(Cl)c(N2CCOCC2)c1[N+](=O)[O-]	inactive: -3.33%
CCOP(=O)(Cc1ccc(C(C)(C)CC(C)=O)o1)OCC	inactive: 5.52%
CCCCNC(=O)CC1C(=O)N(Cc2ccccc2)C(C)c2nc3ccccc3n21 (stereo not drawn)	inactive: 3.57%
COc1ccccc1NC(=O)NNC(=O)CCN1CCOCC1	inactive: 0.0386%
CCOC(=O)c1sc(NC(=O)c2cc(-c3ccccc3C)nc3ccccc23)c(C#N)c1C	inactive: -2.33%
CC(=O)c1c(C)[nH]c(C(=O)COc2cc(C)ccc2C(C)C)c1C	inactive: 0.826%
CCCCNc1c(-c2cccc(-c3ccc(OC)cc3)c2)nc2ccc(C)cn12	inactive: -7.71%
Cc1ccc2cccc(Oc3ncnc4scc(-c5ccccc5)c34)c2n1	inactive: -3.49%
CN(C)c1ccc(N/C=C/C(=O)C(F)(F)F)cc1	inactive: -1.51%
CCC1Sc2ccc(S(=O)(=O)Nc3ccc(OC)c(OC)c3)cc2NC1=O (stereo not drawn)	inactive: 3.17%
Cc1cc(NC(=O)c2ccccc2)c(Cl)cc1N	inactive: 6.38%
COc1ccc(CCNC2=C(Cl)C(=O)N(CCc3ccccc3)C2=O)cc1OC	inactive: -6.32%
C=CC[C@H](CC(=O)N(CCO)Cc1ccccc1)C(=O)N[C@H](COC(=O)[C@@H](CC=C)Cc1ccc(F)cc1)C(C)(C)C	inactive: 0.0369%
O=C(c1ccc2c(c1)N(Cc1ccccc1)C(=O)c1ccccc1S2)N1CCCC1	inactive: 2.87%

Reference: PubChem BioAssay AID602441 (National Center for Advancing Translational Sciences (NCATS), 2012)
